Among the data in patent publication US20150045506 (published 2015) are step yield values, retold here.

The data set in a line: general procedure: peptide synthesis; polystyrene resin with chlorotrityl linker groups (e.g. 2-chlorotrityl chloride); ChemMatrix trityl-alcohol; PyBOP/DIEA.

Consider Ac-GFGQGFGG-CHHLEPGG-CILKEPVHGA-NH2, for which, under “coupling step”, the step yield was determined as 36%.

With Ac-GFGQGFGG-SeEA, the step yield (late stage modification step) worked out at 24%.

Consider Ac-GFGQGFGGCILKEPVHGA-NH2, for which the step yield (coupling step) was 54%.

For the setting “late stage modification step”, H-ILKEPVHGA-SeEA had a step yield of 62%.

For the substance H-IRNCIIGKGRSYKGTVSITKSGIK-SeEA, the step yield (late stage modification step) is 38%.
